Laboratory results published in the supplement of paper PMC6411743.
± gives the standard deviation of the averaged measurements. This is a selection; strong and weak results do not stand in their true shares.

By UniProt entry, the sequences of proteins in these tests, tags left out. Where a name states a change or a piece, a line headed by the entry shows the natural chain unless it says otherwise.
UniProt Q86SE9: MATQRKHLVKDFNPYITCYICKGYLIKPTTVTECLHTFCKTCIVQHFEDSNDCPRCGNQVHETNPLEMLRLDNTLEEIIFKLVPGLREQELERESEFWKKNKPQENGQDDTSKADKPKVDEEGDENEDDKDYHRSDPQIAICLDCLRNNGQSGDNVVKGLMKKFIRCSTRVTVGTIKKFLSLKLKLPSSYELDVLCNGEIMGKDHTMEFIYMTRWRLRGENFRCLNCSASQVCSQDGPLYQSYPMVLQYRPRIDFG
UniProt Q86TI0: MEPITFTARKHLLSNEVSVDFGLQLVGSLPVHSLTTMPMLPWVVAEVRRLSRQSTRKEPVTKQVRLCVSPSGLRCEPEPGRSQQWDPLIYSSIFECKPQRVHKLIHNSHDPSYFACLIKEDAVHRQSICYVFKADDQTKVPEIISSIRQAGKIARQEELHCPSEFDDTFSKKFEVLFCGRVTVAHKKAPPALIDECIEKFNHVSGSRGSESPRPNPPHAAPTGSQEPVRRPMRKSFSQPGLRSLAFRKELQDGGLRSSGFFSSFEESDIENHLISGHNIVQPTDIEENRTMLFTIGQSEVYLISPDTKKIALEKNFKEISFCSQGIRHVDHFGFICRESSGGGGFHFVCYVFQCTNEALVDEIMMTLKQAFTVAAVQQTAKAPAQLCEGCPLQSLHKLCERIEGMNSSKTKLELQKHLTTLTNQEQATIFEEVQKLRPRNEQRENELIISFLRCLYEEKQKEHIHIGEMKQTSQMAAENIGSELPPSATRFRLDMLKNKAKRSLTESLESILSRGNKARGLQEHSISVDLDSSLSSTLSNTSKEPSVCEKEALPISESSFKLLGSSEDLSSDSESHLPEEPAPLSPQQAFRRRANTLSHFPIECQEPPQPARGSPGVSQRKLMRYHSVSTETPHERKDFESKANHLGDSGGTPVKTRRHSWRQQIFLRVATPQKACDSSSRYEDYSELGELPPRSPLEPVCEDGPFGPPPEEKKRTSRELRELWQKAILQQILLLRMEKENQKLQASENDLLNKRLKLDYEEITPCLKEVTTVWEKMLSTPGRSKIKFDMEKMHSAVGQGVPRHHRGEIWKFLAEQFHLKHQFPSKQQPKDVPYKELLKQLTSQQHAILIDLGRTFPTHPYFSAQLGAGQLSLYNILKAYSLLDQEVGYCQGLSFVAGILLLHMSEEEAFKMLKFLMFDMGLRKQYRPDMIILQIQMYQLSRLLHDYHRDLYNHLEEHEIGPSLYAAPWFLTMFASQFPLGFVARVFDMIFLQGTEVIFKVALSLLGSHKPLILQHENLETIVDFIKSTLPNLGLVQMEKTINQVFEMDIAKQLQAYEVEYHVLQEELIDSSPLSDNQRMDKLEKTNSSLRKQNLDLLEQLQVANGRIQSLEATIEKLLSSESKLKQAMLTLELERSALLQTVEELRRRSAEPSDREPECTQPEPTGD
UniProt Q8IUF8: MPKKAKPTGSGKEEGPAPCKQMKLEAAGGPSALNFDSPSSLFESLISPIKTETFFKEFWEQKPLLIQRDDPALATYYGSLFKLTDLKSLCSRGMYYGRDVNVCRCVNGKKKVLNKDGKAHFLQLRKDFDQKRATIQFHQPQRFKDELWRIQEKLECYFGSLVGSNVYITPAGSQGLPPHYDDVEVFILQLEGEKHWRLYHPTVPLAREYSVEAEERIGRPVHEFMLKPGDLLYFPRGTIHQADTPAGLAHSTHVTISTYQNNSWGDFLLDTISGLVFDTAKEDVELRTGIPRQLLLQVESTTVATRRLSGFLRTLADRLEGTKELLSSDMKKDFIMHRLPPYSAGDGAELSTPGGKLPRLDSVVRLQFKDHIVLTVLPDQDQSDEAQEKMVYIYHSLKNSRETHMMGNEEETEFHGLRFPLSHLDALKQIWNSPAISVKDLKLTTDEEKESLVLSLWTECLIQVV
UniProt Q8N128: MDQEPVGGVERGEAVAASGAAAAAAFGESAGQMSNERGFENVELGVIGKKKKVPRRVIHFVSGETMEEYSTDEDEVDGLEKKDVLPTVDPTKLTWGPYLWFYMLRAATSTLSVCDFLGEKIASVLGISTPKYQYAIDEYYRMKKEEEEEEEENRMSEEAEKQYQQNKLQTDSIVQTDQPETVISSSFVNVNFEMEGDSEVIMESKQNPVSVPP
UniProt Q86UE4: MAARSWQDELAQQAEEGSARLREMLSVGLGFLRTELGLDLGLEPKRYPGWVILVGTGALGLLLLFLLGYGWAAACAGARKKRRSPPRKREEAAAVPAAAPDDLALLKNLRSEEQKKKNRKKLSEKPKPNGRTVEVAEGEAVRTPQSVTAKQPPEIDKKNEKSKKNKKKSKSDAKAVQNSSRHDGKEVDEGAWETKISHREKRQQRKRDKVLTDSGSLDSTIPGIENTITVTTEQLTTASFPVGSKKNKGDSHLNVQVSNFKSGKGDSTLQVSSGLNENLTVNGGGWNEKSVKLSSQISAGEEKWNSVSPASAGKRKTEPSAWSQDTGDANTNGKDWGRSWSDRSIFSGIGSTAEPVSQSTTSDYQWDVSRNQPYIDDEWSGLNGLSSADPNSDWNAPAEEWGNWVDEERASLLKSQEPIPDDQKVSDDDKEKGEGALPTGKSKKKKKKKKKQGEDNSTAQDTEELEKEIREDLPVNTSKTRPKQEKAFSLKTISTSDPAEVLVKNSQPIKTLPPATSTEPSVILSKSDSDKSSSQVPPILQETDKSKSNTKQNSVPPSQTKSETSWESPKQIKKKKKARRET
UniProt Q86WQ0: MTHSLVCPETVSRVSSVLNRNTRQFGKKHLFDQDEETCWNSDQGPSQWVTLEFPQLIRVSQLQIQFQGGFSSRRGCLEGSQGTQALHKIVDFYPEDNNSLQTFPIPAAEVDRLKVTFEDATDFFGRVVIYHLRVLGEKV
UniProt Q8NB16: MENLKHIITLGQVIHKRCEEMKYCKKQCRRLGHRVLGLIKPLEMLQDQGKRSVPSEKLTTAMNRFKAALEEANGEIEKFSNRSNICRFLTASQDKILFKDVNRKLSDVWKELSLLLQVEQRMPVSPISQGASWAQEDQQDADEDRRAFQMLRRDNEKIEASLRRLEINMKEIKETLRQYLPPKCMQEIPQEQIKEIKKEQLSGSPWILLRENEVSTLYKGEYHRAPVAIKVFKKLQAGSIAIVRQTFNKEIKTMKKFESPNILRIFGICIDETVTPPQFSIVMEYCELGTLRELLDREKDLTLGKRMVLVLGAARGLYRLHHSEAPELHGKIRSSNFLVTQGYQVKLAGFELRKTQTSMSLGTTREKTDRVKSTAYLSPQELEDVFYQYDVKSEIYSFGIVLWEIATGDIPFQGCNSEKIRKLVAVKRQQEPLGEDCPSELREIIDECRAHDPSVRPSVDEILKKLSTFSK
UniProt Q8N8A6: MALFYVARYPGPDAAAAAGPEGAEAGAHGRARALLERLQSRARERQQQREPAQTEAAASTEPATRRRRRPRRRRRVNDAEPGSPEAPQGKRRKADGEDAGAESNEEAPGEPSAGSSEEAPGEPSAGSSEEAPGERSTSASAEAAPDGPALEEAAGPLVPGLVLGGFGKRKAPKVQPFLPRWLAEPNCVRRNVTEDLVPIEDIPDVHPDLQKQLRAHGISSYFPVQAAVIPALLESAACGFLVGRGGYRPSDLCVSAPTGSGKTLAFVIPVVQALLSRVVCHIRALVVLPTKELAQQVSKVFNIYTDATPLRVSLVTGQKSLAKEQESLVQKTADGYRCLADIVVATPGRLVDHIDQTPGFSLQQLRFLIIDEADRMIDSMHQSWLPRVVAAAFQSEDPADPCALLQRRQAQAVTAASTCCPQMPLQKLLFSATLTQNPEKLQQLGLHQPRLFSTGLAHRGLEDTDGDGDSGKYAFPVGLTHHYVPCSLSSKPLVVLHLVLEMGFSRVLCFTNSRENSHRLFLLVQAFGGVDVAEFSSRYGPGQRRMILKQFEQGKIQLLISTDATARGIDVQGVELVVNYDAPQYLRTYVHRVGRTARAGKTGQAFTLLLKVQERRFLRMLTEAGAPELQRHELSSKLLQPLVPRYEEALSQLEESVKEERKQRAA
UniProt Q8N3Z6: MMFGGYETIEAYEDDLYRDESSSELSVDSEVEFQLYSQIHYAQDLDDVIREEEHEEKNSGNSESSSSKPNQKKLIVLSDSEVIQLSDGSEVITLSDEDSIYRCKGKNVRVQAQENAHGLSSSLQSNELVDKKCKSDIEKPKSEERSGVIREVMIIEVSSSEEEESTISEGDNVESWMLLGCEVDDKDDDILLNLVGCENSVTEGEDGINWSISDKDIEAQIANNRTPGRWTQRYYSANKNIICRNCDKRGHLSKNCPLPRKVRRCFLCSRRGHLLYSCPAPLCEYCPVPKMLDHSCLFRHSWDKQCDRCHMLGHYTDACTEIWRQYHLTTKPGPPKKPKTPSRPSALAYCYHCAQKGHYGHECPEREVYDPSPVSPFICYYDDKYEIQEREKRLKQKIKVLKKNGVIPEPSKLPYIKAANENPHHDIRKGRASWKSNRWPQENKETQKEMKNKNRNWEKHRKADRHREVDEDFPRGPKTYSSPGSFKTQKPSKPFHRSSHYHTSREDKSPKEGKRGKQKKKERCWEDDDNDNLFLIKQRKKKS
UniProt Q86U44, whole entry: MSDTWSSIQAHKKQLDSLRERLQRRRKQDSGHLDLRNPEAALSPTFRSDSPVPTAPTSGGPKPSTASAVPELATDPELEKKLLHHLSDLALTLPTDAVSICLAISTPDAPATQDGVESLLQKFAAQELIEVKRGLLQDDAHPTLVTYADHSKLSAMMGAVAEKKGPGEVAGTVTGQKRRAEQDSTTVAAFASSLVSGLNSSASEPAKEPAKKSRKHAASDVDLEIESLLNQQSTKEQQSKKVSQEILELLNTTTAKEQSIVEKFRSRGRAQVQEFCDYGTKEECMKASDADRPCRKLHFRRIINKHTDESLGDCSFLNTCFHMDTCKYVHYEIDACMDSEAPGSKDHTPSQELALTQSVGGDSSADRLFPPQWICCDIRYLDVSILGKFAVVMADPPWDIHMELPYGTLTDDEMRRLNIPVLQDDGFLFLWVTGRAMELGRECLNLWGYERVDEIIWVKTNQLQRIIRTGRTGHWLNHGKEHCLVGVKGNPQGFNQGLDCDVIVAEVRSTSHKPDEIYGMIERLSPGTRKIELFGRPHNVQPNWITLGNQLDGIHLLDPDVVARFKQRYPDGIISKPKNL
UniProt Q86Y56: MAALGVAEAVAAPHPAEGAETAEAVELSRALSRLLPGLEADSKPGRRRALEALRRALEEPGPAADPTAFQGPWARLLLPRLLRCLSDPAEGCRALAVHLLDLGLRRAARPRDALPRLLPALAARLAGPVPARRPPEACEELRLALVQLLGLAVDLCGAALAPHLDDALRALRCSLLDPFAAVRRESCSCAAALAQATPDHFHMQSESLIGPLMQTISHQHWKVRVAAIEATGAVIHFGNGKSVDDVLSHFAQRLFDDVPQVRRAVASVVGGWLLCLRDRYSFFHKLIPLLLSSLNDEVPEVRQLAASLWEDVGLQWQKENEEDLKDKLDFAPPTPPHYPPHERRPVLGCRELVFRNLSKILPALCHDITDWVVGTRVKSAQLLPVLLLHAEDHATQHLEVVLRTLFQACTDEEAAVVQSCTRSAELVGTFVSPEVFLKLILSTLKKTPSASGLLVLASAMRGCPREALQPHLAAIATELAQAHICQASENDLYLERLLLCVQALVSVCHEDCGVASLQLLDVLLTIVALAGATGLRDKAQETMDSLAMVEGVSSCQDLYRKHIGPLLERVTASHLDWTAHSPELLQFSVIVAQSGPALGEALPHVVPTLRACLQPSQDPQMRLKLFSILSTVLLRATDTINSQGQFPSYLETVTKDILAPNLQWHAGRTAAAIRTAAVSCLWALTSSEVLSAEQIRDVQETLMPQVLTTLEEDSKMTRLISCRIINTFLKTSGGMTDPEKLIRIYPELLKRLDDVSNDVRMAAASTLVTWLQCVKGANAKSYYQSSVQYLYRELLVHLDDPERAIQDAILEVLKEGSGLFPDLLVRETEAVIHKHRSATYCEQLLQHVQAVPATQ
UniProt Q8N6M0: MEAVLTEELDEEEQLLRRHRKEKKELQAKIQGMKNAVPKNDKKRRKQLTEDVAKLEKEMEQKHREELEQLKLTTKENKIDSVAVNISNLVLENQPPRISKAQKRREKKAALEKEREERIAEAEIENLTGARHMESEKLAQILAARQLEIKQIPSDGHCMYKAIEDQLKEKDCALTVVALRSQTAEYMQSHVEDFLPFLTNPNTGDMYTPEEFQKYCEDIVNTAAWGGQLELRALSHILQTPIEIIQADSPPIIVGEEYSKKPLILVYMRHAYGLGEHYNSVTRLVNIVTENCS
UniProt Q8NBN7: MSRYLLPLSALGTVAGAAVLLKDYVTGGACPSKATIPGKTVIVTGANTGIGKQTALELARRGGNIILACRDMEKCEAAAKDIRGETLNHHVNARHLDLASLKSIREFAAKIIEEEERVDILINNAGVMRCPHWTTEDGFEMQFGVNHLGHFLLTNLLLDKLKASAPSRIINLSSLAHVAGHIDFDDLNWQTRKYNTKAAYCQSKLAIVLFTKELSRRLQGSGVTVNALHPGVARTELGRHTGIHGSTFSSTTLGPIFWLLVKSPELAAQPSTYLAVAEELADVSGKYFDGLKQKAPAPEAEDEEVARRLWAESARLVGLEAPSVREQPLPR

Compound: Nc1ncnc2c1ncn2[C@@H]1O[C@H](COP(=O)(O)OP(=O)(O)NP(=O)(O)O)[C@@H](O)[C@H]1O [adenylyl imidodiphosphate]
Assay: NP40-soluble protein abundance relative to vehicle (solubility fold change) (ratio); higher = more soluble protein in presence of AMP-PNP
Method in brief: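 Jurkat crude lysate prepared with a Dounce homogeniser was treated at eight concentrations spanning 0.1 to 10 mM, 10 min at room temperature then 3 min at 37 °C. Solubilisation with 0.8% NP40 and benzonase and ultracentrifugation preceded TMT labelling of the supernatant for LC-MS/MS. Fold change against the detergent-processed vehicle was determined per replicate from vsn-normalised intensities, across three independent experiments.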

Target	NP40-soluble protein abundance (concentration: 1mM)	NP40-soluble protein abundance (concentration: 2mM)	NP40-soluble protein abundance (concentration: 4mM)	NP40-soluble protein abundance (concentration: 6mM)	NP40-soluble protein abundance (concentration: 8mM)	NP40-soluble protein abundance (concentration: 10mM)
ZCCHC9 (UniProt Q8N567)	1.07 ± 0.035	1.11 ± 0.031	1.13 ± 0.072	1.14 ± 0.014	1.15 ± 0.02	1.18 ± 0.056
USP48 (UniProt Q86UV5)	1.01 ± 0.029	0.966 ± 0.047	0.984 ± 0.024	0.965 ± 0.029	0.972 ± 0.049	0.958 ± 0.048
ERI1 (UniProt Q8IV48)	0.98 ± 0.062	0.981 ± 0.047	1.03 ± 0.07	1.07 ± 0.036	1.12 ± 0.06	1.13 ± 0.072
PCGF5 (UniProt Q86SE9)	1.01 ± 0.043	1.01 ± 0.029	1.01 ± 0.065	0.967 ± 0.054	0.974 ± 0.039	0.945 ± 0.036
UniProt Q8IXQ6-2|Q8IXQ6-3|G5E9U8 and related entries	0.9923 ± 0.0056	0.9832 ± 0.0065	1.03 ± 0.018	1 ± 0.049	1.03 ± 0.04	0.999 ± 0.069
UniProt Q8NBK3 and related entries	1.018 ± 0.0033	1.001 ± 0.0057	0.991 ± 0.045	1.02 ± 0.041	1.01 ± 0.046	1 ± 0.013
UniProt Q86TI0 and related entries	1.06 ± 0.022	1.04 ± 0.032	1.05 ± 0.056	0.989 ± 0.029	1.01 ± 0.076	1 ± 0.062
UniProt Q86UY6	1.04 ± 0.06	1.1 ± 0.045	1.15 ± 0.077	1.15 ± 0.069	1.19 ± 0.087	1.23 ± 0.077
UniProt Q8IUF8 and related entries	1.05 ± 0.026	1.04 ± 0.028	1.09 ± 0.019	1.08 ± 0.038	1.1 ± 0.033	1.08 ± 0.028
UniProt Q8N128 and related entries	1.03 ± 0.043	1.05 ± 0.031	1.04 ± 0.024	1.02 ± 0.0077	0.981 ± 0.02	1.01 ± 0.056
MTDH (UniProt Q86UE4)	1.13 ± 0.046	1.3 ± 0.16	1.32 ± 0.073	1.46 ± 0.2	1.47 ± 0.17	1.58 ± 0.17
UniProt Q7Z6V5 and related entries	0.968 ± 0.034	1.01 ± 0.0097	0.977 ± 0.037	0.999 ± 0.088	0.974 ± 0.068	0.985 ± 0.077
UniProt Q8IU60 and related entries	0.986 ± 0.055	0.987 ± 0.048	0.993 ± 0.067	0.97 ± 0.058	0.965 ± 0.038	0.982 ± 0.059
UniProt Q86WQ0 and related entries	1.07 ± 0.041	1.08 ± 0.046	1.05 ± 0.019	1.07 ± 0.026	1.05 ± 0.025	1.07 ± 0.042
UniProt Q8NBL1	1.01 ± 0.016	1.02 ± 0.06	1 ± 0.048	1.02 ± 0.046	1.02 ± 0.016	1.03 ± 0.037
UniProt Q8IWZ8	1 ± 0.033	1.04 ± 0.098	1 ± 0.087	0.999 ± 0.025	1 ± 0.04	1.03 ± 0.036
MLKL (UniProt Q8NB16)	1.021 ± 0.0029	1.009 ± 0.0058	1.02 ± 0.011	1.01 ± 0.022	1.01 ± 0.019	1.01 ± 0.015
CLYBL (UniProt Q8N0X4)	1.01 ± 0.016	0.978 ± 0.013	1 ± 0.02	0.982 ± 0.043	0.9692 ± 0.0037	0.9819 ± 0.0062
DDX51 (UniProt Q8N8A6)	1.06 ± 0.018	1.09 ± 0.02	1.15 ± 0.059	1.2 ± 0.038	1.24 ± 0.033	1.423 ± 0.014
ZCCHC7 (UniProt Q8N3Z6)	1.097 ± 0.0021	1.08 ± 0.071	1.1 ± 0.02	1.07 ± 0.017	1.1 ± 0.017	1.1 ± 0.036
METTL3 (UniProt Q86U44)	1.02 ± 0.013	1.02 ± 0.017	1.02 ± 0.015	0.996 ± 0.013	0.999 ± 0.01	0.99 ± 0.017
PTGR2 (UniProt Q8N8N7)	1.01 ± 0.049	0.998 ± 0.064	0.982 ± 0.026	0.978 ± 0.012	0.972 ± 0.04	0.978 ± 0.044
UniProt Q86Y56	0.976 ± 0.045	0.931 ± 0.038	0.977 ± 0.037	1.01 ± 0.022	0.997 ± 0.055	0.991 ± 0.04
UniProt Q8N6M0 and related entries	1.04 ± 0.012	1.07 ± 0.027	1.07 ± 0.019	1.07 ± 0.013	1.08 ± 0.024	1.07 ± 0.045
UniProt Q8NB15-2|Q8NB15	1.01 ± 0.029	1.02 ± 0.033	1.01 ± 0.037	0.992 ± 0.012	1 ± 0.035	1.01 ± 0.035
GPD1L (UniProt Q8N335)	1 ± 0.029	0.992 ± 0.043	0.979 ± 0.045	0.95 ± 0.012	0.938 ± 0.024	0.961 ± 0.051
RDH13 (UniProt Q8NBN7)	1.03 ± 0.023	1.06 ± 0.049	1.03 ± 0.03	1.01 ± 0.011	0.987 ± 0.014	0.991 ± 0.025

Another view of part of the listing above:
Target,NP40-soluble protein abundance (concentration: 1mM),NP40-soluble protein abundance (concentration: 2mM),NP40-soluble protein abundance (concentration: 4mM),NP40-soluble protein abundance (concentration: 6mM),NP40-soluble protein abundance (concentration: 8mM),NP40-soluble protein abundance (concentration: 10mM)
UniProt Q8IXQ6-2|Q8IXQ6-3|G5E9U8 and related entries,0.9923 ± 0.0056,0.9832 ± 0.0065,1.03 ± 0.018,1 ± 0.049,1.03 ± 0.04,0.999 ± 0.069
UniProt Q8NBK3 and related entries,1.018 ± 0.0033,1.001 ± 0.0057,0.991 ± 0.045,1.02 ± 0.041,1.01 ± 0.046,1 ± 0.013
